Earlier results, collected in patent EP2197279B1, “C10-SUBSTITUTED CAMPTOTHECIN ANALOGS” (BIONUMERIK PHARMACEUTICALS, INC., priority 2007, dated 2009).

Settings: closed E-ring lactone form; drug dissolving in 1 mL of water; cited from earlier work

## CC[C@@]1(O)C(=O)OCc2c1cc1n(c2=O)Cc2cc3ccccc3nc2-1 [CPT, (S)-4-Ethyl-4-hydroxy-1H-pyrano[3',4':6,7]indolizino[1,2-b]quinoline-3,14(4H,12H)-dione]
  solubility in water: approximately 0.1 µg
